Data taken from ChEMBL document CHEMBL3988442, “University of Dundee, Small-Polar-MMV Screening Library” (2021).

By UniProt entry, the sequences of proteins in these tests, tags left out. Residues count along the entry.
UniProt Q4DA54, 1-478: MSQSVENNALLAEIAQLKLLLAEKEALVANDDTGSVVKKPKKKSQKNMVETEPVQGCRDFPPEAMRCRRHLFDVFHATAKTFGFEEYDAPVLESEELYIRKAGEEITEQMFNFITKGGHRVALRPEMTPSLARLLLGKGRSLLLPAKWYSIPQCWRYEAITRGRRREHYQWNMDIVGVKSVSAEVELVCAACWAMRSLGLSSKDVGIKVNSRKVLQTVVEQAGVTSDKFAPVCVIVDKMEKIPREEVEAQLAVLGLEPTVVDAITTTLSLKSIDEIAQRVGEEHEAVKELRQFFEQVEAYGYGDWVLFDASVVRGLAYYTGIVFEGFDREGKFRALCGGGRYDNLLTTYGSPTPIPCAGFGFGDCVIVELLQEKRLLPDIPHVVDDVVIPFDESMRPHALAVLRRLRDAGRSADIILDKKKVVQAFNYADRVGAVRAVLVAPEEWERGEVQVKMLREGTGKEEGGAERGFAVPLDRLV
UniProt A4I591, 1-473: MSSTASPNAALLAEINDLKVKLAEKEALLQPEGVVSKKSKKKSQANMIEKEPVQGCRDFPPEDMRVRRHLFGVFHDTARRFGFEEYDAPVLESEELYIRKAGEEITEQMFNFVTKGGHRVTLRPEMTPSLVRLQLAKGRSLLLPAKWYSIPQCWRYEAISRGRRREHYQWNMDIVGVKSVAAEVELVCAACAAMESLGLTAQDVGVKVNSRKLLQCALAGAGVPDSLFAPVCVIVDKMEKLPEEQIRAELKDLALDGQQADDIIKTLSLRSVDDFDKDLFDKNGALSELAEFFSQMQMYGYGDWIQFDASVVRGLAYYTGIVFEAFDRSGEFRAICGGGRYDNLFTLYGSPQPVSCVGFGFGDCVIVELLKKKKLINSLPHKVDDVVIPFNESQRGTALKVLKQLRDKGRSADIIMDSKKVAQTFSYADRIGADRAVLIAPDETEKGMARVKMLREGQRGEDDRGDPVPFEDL

The filed quantity is “Percent Effect” (%).
The controls that fix the scale are not given in the record; negative values are as filed.
The compounds are a random part of those screened.

T. brucei: 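Whole-parasite assay of Trypanosoma brucei over 72 hours; the read-out is not stated. Compounds at 30 µM. Direction is inferred from retests: higher values go with stronger inhibition. Values scatter widely below zero; nearly all retest evidence comes from the higher of the two concentrations used. Of about 64,000 compounds tested this way, about 940 (1.5%) reached 50% or more in at least one test.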
TcHisRS: 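Histidine-tRNA ligase, Trypanosoma cruzi CL Brener (UniProt Q4DA54). Enzyme assay of histidyl-tRNA synthetase; the read-out is not stated. Concentration: 30 µM. Direction is inferred from retests: higher values go with stronger inhibition. About 69,000 compounds were tested under these conditions; 0.045% (about 31) showed 50% or more at least once.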
LiHisRS: 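Enzyme assay of histidyl-tRNA synthetase; the read-out is not stated. Target: Histidine-tRNA ligase, Leishmania infantum (UniProt A4I591). Compounds at 30 µM. Direction is inferred from retests: higher values go with stronger inhibition. The assay is labelled LdHisRS but filed under L. infantum. Of about 69,000 compounds tested this way, about 410 (0.6%) reached 50% or more in at least one test.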

{"structure": "O=C(CNC(=O)c1ccccc1F)NCc1ccccn1", "T. brucei": -38.49, "TcHisRS": 4.348, "LiHisRS": 8.333}
{"structure": "COC(C(=O)N1CCN(Cc2noc(C)n2)CC1)c1ccccc1", "stereo": "stereo unspecified", "T. brucei": -18.13, "TcHisRS": 4.651, "LiHisRS": 9.836}
{"structure": "Cc1noc(CN(C)Cc2cnc(N3CCOCC3)nc2)n1", "T. brucei": 9.301, "TcHisRS": 5.028, "LiHisRS": 18.42}
{"structure": "CCC(=O)N1CCC2(CCC(N3CCCC3)c3ccccc32)CC1.O=C(O)C(F)(F)F", "stereo": "stereo unspecified", "T. brucei": -57.04}
{"structure": "CC1(C)CNC(=O)c2nc(CCN3CCCCC3CO)[nH]c2C1", "stereo": "stereo unspecified", "T. brucei": -87.42, "TcHisRS": 2.941, "LiHisRS": 11.2}
{"structure": "NC(=O)CCC1CCCN(c2ccc3c(Cl)ccnc3c2F)C1", "stereo": "stereo unspecified", "T. brucei": -15.55, "TcHisRS": 14.47, "LiHisRS": 27.5}
{"structure": "CCCOCC(=O)NS(=O)(=O)c1ccc2c(c1)OCCO2", "T. brucei": 2.971, "TcHisRS": 2.312, "LiHisRS": 4.386}
{"structure": "COc1cccc(COC(C)C(=O)NC2CCN(CC(N)=O)CC2)c1", "stereo": "stereo unspecified", "T. brucei": -282.6, "TcHisRS": 4.762, "LiHisRS": 8.219}
{"structure": "Cc1nc(Nc2ccccn2)cc(C2CCCN2C2CCOCC2)n1", "stereo": "stereo unspecified", "T. brucei": 14.49, "TcHisRS": 4.494, "LiHisRS": 16}
{"structure": "COc1ccnc(N2CCN(C(=O)c3cnn(C)c3C3CC3)CC2)n1", "T. brucei": -5.707, "TcHisRS": -4.237, "LiHisRS": 16.98}
{"structure": "COc1ccc(CC(=O)N2CCC(Nc3ccc(C)nn3)CC2)cc1", "T. brucei": 14.17, "TcHisRS": 6.59, "LiHisRS": 10.53}
{"structure": "O=C(c1ccc(Cn2cnnn2)cc1)N1CC[C@H](CO)[C@H](O)C1", "T. brucei": -75.43, "TcHisRS": 3.863, "LiHisRS": 8.197}
{"structure": "COCCC(=O)NCC1Cn2nnc(-c3cccc(F)c3)c2CO1", "stereo": "stereo unspecified", "T. brucei": 3.646, "TcHisRS": 7.843, "LiHisRS": 11.43}
{"structure": "Cc1nc2c(NCC(C)N(C)c3ccccc3)ncnc2o1", "stereo": "stereo unspecified", "T. brucei": 8.873, "TcHisRS": 5.759, "LiHisRS": 8.602}
{"structure": "O=C([C@H]1C[C@H]2OCC[C@H]2N(C(=O)c2ccncc2)C1)N1CCCCO1", "TcHisRS": 1.622, "LiHisRS": 9.434}
{"structure": "CCc1nc(C2CCCN2CC(=O)NCCOc2ccccc2)no1", "stereo": "stereo unspecified", "TcHisRS": 5.294, "LiHisRS": 7.339}
{"structure": "Cc1cc2nc(CN(C)c3ccccc3)cc(=O)n2o1", "TcHisRS": 6.14, "LiHisRS": 14.16}
{"structure": "CCOCCSc1nnc(-c2cn(CC)nc2OCC)n1C", "T. brucei": 15.45, "TcHisRS": 7.772, "LiHisRS": 21.51}
{"structure": "CC(C)N(C)C(=O)C1CCC2(CCNCC2)O1", "stereo": "stereo unspecified", "TcHisRS": 0.6452, "LiHisRS": -3.03}
{"structure": "CCSc1cncc(NCc2ccc(N3CCNC(=O)C3)cc2)n1", "T. brucei": -9.848, "TcHisRS": 5.028, "LiHisRS": 5.263}
{"structure": "COc1cc(C(=O)NCCS(=O)(=O)N(C)C)c2ccccc2n1", "T. brucei": -40.69, "TcHisRS": 8.743, "LiHisRS": -2.74}
{"structure": "Cc1noc(Cl)c1CCC(=O)N1CCC(Nc2cccnn2)CC1", "T. brucei": -15.56, "TcHisRS": 7.514, "LiHisRS": 6.25}
{"structure": "O=C(c1cccnc1)N1CCC2(CC1)CNc1c(F)cccc12", "TcHisRS": 1.111, "LiHisRS": 24.53}
{"structure": "Cc1cc(C)c(S(N)(=O)=O)cc1C(=O)NCCN1CCCCC1", "T. brucei": 5.648, "TcHisRS": 10.88, "LiHisRS": 16.85}
{"structure": "Fc1ccc(CCC2CCCN(Cc3c[nH]cn3)C2)c(F)c1", "stereo": "stereo unspecified", "T. brucei": 13.81, "TcHisRS": 7.143, "LiHisRS": 13.89}

For reference, 3 entries once more:

{"structure": "O=C([C@H]1C[C@H]2OCC[C@H]2N(C(=O)c2ccncc2)C1)N1CCCCO1", "TcHisRS": 1.622, "LiHisRS": 9.434}
{"structure": "COCCC(=O)NCC1Cn2nnc(-c3cccc(F)c3)c2CO1", "stereo": "stereo unspecified", "T. brucei": 3.646, "TcHisRS": 7.843, "LiHisRS": 11.43}
{"structure": "CCc1nc(C2CCCN2CC(=O)NCCOc2ccccc2)no1", "stereo": "stereo unspecified", "TcHisRS": 5.294, "LiHisRS": 7.339}